The text below walks through data of patent publication EP3222712A1, “ALCOHOL DEHYDROGENASE FROM PICHIA PASTORIS AND USE THEREOF” (priority 2016, dated 2017).

In the data set the test system is alcohol dehydrogenase from Pichia pastoris (PPADH). The data set is described as follows: biotransformation by purified PPADH with GDH co-factor regeneration, gas chromatography. Format: biochemical. The conditions noted are these: 2 hours reaction time; for ee: acetophenone derivatives, alcohol formed.

In turn, `O=C(c1ccccc1)C(F)(F)F` [2,2,2-Trifluoroacetophenone] showed an ee of 29.5%. In the case of `CC(=O)c1ccccc1` [acetophenone], the “enantiomer of the alcohol formed” value (acetophenone) is “(S)”.

`O=C(c1ccc(Cl)cc1)C(F)(F)F` [4'-Chloro-2,2,2-trifluoro acetophenone] displayed an ee of 63.8%.
